# Measured values as given in US11716992B2, “5A5B6C tricyclic spirolactone derivative, preparation method therefor and use thereof” (NANKAI UNIVERSITY, priority 2017, dated 2023).
# For some of these results: At least one read-out could not be matched to a standard name with certainty. Some results were stated once for a whole list of compounds, not compound by compound.
# Assays:
# Rhizoctonia cerealis = experiment: Fungicidal activity, fungicide growth rate method, RC; type: cell-based; conditions: 50 μg/mL; listed as Zyj06-3 9
# Physalospora piricola = experiment: Fungicidal activity, fungicide growth rate method, PP; type: cell-based; conditions: 50 μg/mL; listed as Zyj07-3 0-1
# Sclerotinia sclerotiorum = experiment: Fungicidal activity, fungicide growth rate method, SS; type: cell-based; conditions: 50 μg/mL
# Cercospora arachidicola = experiment: Fungicidal activity, fungicide growth rate method, CA; type: cell-based; conditions: 50 μg/mL; listed as Zyj07-3 0-2
# Caenorhabditis elegans = experiment: Insecticidal activity against Caenorhabditis elegans; type: in vivo; conditions: 100 μg/mL
compound,measurement,setting,value
O=C1CCC23CC=CCC12O3 (stereo not shown) [Zyj06-39],"fungicidal activity (growth inhibition rate), RC",Rhizoctonia cerealis,higher than 70%
C=CC[C@@H]1C[C@]2(O)C[C@H](O[C@]34CCO[C@@]35CC=CC[C@H]5[C@H](CC=C)C4)O[C@@]23CC=CC[C@H]13 [Zyj07-30-1],"fungicidal activity (growth inhibition rate), PP",Physalospora piricola,higher than 50%
same,"fungicidal activity (growth inhibition rate), SS",Sclerotinia sclerotiorum; listed as Zyj07-3 0-1,higher than 50%
C=CC[C@@H]1C[C@]2(O)C[C@H](O[C@]34CCO[C@@]35CC=CC[C@H]5[C@H](CC=C)C4)O[C@@]23CC=CC[C@H]13 [Zyj07-30-2],"fungicidal activity (growth inhibition rate), SS",Sclerotinia sclerotiorum; listed as Zyj07-3 0-2,higher than 50%
same,"fungicidal activity (growth inhibition rate), CA",Cercospora arachidicola,higher than 50%
same,"insecticidal activity, Caenorhabditis elegans",Caenorhabditis elegans,33%
same,"insecticidal activity, Caenorhabditis elegans",Caenorhabditis elegans; listed as Zyj07-3 0-2,higher than 30%
